According to patent US20220119450A1:

Target: NRP-1 b1b2 with mutated CendR binding pocket
Assay: nanoparticle binding to recombinant protein

binding: no binding
B1: PL3-functionalized silver nanoparticles (biotinylated PL3 peptide on NeutrAvidin-coated AgNPs) (peptide)
peptide: AGRGRLVR
modifications: biotinylated; bound to NeutrAvidin on dye-labeled PEGylated silver nanoparticles

Results are given in words; binding and its absence hold for the method and conditions named.
